Hit rate of the full screen: of about 390,000 compounds, about 820 (0.21%) were called active. The shares of active, inactive and inconclusive entries below differ from those in the screen. Calls follow the shape of the dose curve; as a rule, active = well fitted inhibition curve with a large enough effect; inconclusive = small, poorly fitted or top-dose-only effect, or another doubt; inactive = no such curve, though single readings can be large or run the other way. Where the call is inconclusive, the potency comes from a doubtful curve fit.
Biological target: Histone acetyltransferase KAT2A (Homo sapiens) (UniProt Q92830)
Assay: qHTS Assay for Inhibitors of GCN5L2
Conditions: GCN5L2 HAT assay, ThioGlo1 CoA-SH fluorescence; series mostly up to 58.9 µM
Outline: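 GCN5L2 (20nM final) in 50mM HEPES, 0.1mM EDTA pH 7.5, 0.01% Tween-20 was preincubated 15 min at room temperature with compound, then given ThioGlo1 (50uM), H3(1-25) peptide (75uM) and acetyl-CoA (70uM); CoA-thiol fluorescence (Ex340/Em540) was read at 0 and 20 min.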
% is scaled to controls: 0 for no effect and ±100 for the full control effect; potency is read from the fitted curve at half-maximal effect.

The chains behind the UniProt entries cited, without tags or fusion partners.
UniProt Q92830, whole entry, looked up: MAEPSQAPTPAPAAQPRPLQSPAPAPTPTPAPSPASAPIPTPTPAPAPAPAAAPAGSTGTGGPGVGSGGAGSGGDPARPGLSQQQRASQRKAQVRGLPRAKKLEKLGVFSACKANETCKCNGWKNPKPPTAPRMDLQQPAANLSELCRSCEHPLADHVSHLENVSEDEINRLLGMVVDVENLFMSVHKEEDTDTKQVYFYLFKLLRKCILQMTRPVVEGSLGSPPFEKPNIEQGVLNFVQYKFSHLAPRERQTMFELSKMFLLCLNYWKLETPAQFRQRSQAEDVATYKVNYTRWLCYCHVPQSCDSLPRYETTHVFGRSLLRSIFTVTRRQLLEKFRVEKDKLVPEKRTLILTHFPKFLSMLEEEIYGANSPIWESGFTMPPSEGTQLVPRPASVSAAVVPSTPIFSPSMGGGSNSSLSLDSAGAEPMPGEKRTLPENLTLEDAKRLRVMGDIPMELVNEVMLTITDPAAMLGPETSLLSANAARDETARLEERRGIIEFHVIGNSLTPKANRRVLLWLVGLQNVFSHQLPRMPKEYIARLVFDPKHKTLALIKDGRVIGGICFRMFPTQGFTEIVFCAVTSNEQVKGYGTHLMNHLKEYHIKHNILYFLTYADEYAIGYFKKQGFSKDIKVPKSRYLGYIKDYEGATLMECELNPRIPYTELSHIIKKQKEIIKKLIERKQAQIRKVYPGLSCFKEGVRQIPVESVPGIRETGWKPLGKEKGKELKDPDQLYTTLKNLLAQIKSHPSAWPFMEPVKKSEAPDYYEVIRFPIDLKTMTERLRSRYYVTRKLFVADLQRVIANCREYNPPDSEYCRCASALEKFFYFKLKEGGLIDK

SMILES	Potency
O=C(N1CCOCC1)N1CCN(c2ccccc2)CC1	inactive
O=c1cc(C(F)(F)F)[nH]c2c(C(F)(F)F)cccc12	inactive
CCc1ccc(CNC(=O)c2ccc(OC3CCN(C(=O)COC)CC3)cc2)nc1	inconclusive: 0.1 µM [inhibitor, full curve, poor fit]
CCC(C)C(=O)OCC1(c2ccc(C)cc2OC(=O)C(C)C)CO1 (stereo unspecified)	inactive
CCc1cc(=O)oc2cc(OC(=O)CN3C(=O)NC4(CCCC4)C3=O)ccc12	inactive
Cc1ccc2c(C)c(C(=O)N(Cc3ccc(N(C)C)cc3)C3CCS(=O)(=O)C3)oc2c1 (stereo unspecified)	inconclusive: 0.126 µM [inhibitor, full curve, poor fit]
COc1cc(C)ccc1OCCCOc1ccccc1Br	inactive
Cc1ccc(C(=O)O)cc1-c1ccc(/C=C2\SC(=O)N(CC(=O)Nc3ccc4c(c3)OCO4)C2=O)o1	inconclusive: 28.2 µM [inhibitor, single point]
c1ccc(-c2nn[nH]n2)c(Nc2cccc3c2CCCC3)c1	active: 17.8 µM
CN(Cc1ccc2c(c1)OCCO2)C(=O)CN1C(=O)NC2(CCCCC2)C1=O	inconclusive: 2 µM [inhibitor, partial curve]
COc1ccc(N/N=C/c2c(C(=O)O)ccc3ccccc23)cc1	inactive
Cc1ccc(OCCCOc2cccc3cccnc23)cc1C	inconclusive: 39.8 µM [inhibitor, single point]
COc1ccc(-c2nc3n(c2Br)CCC3)cc1	inconclusive: 8.91 µM [inhibitor, single point]
Cc1cccn2c(=O)c3cc(C#N)c(=NC(=O)c4ccncc4)n(CCCOC(C)C)c3nc12	inconclusive: 28.2 µM [inhibitor, single point]
COc1ccc(-c2nc3ccccc3c(=O)n2CC(C)C)cc1	inconclusive: 28.2 µM [inhibitor, single point]
COCCC(=O)N1CCC(Oc2ccc(C(=O)N3CCCCC3COC)cc2)CC1 (stereo unspecified)	inactive
Cc1nn(C)c(Oc2ccccc2)c1CCNS(=O)(=O)c1ccc(F)cc1	inconclusive: 0.891 µM [inhibitor, full curve, poor fit]
Cc1ccc(S(=O)(=O)/N=C2/NC(=O)/C(=C\c3cc(Br)cc(Br)c3O)S2)cc1	active: 15.8 µM
CC(NS(=O)(=O)c1cccc(Cl)c1)C(=O)Nc1ccc(-c2nc3ccccc3s2)cc1 (stereo unspecified)	inactive

SMILES	Potency
COCCn1c(SCC(=O)N(C(C)C)C(C)C)nnc1-c1cc2ccccc2cc1O	inconclusive: 0.891 µM [inhibitor, single point]
CC(Nc1cccc([N+](=O)[O-])c1)C(=O)Nc1ccc(S(=O)(=O)N2CCCC2)cc1 (stereo unspecified)	inactive
CCOc1cccc(CC(=O)N2CCc3c([nH]c4ccccc34)C2c2ccc(C)cc2)c1OCC (stereo unspecified)	inactive
COc1ccc(C2NN=C(c3ccc(C)cc3)S2)cc1OC (stereo unspecified)	inactive
CN(Cc1ccccc1)C(=O)COC(=O)/C=C/c1ccco1	inconclusive: 25.1 µM [inhibitor, single point]
CSc1ccc(/C=N/Nc2cccc(C(=O)O)c2)cc1	inconclusive: 22.4 µM [inhibitor, partial curve]
COC(=O)CCCNC(=O)CC1C(=O)NCCN1Cc1ccoc1 (stereo unspecified)	inconclusive: 3.98 µM [inhibitor, single point]
COc1ccc(OC)c(NC(=O)c2c(NCc3ccc(C)o3)sc3c2CCCCC3)c1	inactive
N#CCSc1nnc(-c2c[nH]c3ccccc23)o1	inconclusive: 6.31 µM [inhibitor, full curve, poor fit]
C=C(c1ccc(C(=O)O)cc1)c1cc2c(cc1C)C(C)(C)CCC2(C)C	active: 6.31 µM
O=C(c1ccccc1)c1ccccc1C(=O)c1ccccc1	inconclusive: 0.708 µM [inhibitor, single point]
COc1cc(/C=N/NS(=O)(=O)c2ccccc2)c(OC)c(OC)c1	inconclusive: 0.126 µM [inhibitor, full curve, poor fit]
COc1ccc(Oc2ncc3nc(-c4cccs4)c(=O)n(Cc4cccs4)c3n2)cc1	inconclusive: 39.8 µM [inhibitor, single point]
Cc1ccc2oc(=O)n(CCOc3ccccc3)c2c1	inconclusive: 3.16 µM [inhibitor, single point]
CCCCCOc1ccc(OC(=O)c2ccncc2)cc1	inconclusive: 20 µM [inhibitor, single point]
COc1ccccc1Nc1nnc(SCC(=O)c2c(N)n(C3CC3)c(=O)[nH]c2=O)s1	inconclusive: 35.5 µM [inhibitor, single point]
Cc1onc(-c2ccc(Cl)cc2Cl)c1-c1csc(COc2ccccc2)n1	inconclusive: 0.891 µM [inhibitor, single point]
CCc1nnc(NC(=O)CSc2nnc(-c3ccccc3OC)n2-c2ccc(C)cc2)s1	inconclusive: 39.8 µM [inhibitor, single point]
Cc1ccccc1N1C(=O)Cc2ccccc2C1=O	inconclusive: 35.5 µM [inhibitor, single point]

A draw from above in order of number of heavy atoms, ascending.
SMILES	Potency
Cc1ccc(OCCCOc2cccc3cccnc23)cc1C	inconclusive: 39.8 µM [inhibitor, single point]
CCc1ccc(CNC(=O)c2ccc(OC3CCN(C(=O)COC)CC3)cc2)nc1	inconclusive: 0.1 µM [inhibitor, full curve, poor fit]
CC(NS(=O)(=O)c1cccc(Cl)c1)C(=O)Nc1ccc(-c2nc3ccccc3s2)cc1 (stereo unspecified)	inactive
Cc1ccc(C(=O)O)cc1-c1ccc(/C=C2\SC(=O)N(CC(=O)Nc3ccc4c(c3)OCO4)C2=O)o1	inconclusive: 28.2 µM [inhibitor, single point]

Remaining list, next part:

SMILES	Potency
Nc1nc2nc(-c3cccs3)cc(C(F)(F)F)n2n1	inconclusive: 28.2 µM [inhibitor, single point]
N#Cc1c(N)n(-c2ccc(C(=O)O)cc2)c2nc3ccccc3nc12	inconclusive: 25.1 µM [inhibitor, partial curve]
CCOc1ccccc1NC(=O)C(OC(=O)c1ccc(NC(=O)CC#N)cc1)c1ccccc1 (stereo unspecified)	inconclusive: 0.355 µM [inhibitor, full curve, poor fit]
COCCn1c(=O)cnc2cnc(N3CCN(C)CC3)nc21	inconclusive: 44.7 µM [inhibitor, partial curve, poor fit]
COc1ccc(OC)c(NC=C2C(=O)OC(C)(C)OC2=O)c1	inconclusive: 8.91 µM [inhibitor, partial curve]
Cn1cccc1CC(=O)NNC(=S)NC(=O)c1ccc(F)cc1	inconclusive: 3.55 µM [inhibitor, single point]
COC(=O)[C@@H](NC(=O)c1ccc(OC2CCN(Cc3ccccn3)CC2)cc1)C(C)C	inconclusive: 35.5 µM [inhibitor, single point]
Clc1ccc(C(c2nnnn2CCc2ccccc2)N2CCSCC2)cc1 (stereo unspecified)	inconclusive: 39.8 µM [inhibitor, single point]
COC(=O)c1ccc(NC(=O)CSc2nccn2CCc2ccccc2)cc1	inactive
O=C1Nc2cc(C(=O)N3CCN(c4ccc(F)cc4)CC3)ccc2NC1CSCc1cccc(F)c1 (stereo unspecified)	inconclusive: 39.8 µM [inhibitor, single point]
COc1cc(OC)cc(C(=O)Nc2ccc3c(c2)CCCN3C(=O)c2cccs2)c1	inconclusive: 2.24 µM [inhibitor, full curve, poor fit]
COc1ccc(OC)c(C2CC(=O)N3CN(c4cccc(Cl)c4)CSC3=C2C#N)c1 (stereo unspecified)	active: 25.1 µM
CC/C(=C(\c1ccccc1)c1ccc(OCCN(C)C)cc1)c1ccccc1	inconclusive: 50.1 µM [inhibitor, single point]
CCc1oc2ccccc2c1C(=O)c1cc(Br)c(O)c(Br)c1	inconclusive: 28.2 µM [inhibitor, single point] [middle of 4 runs]
COCCn1c(C)nnc1SCC(=O)Nc1ccccc1[N+](=O)[O-]	inconclusive: 0.794 µM [inhibitor, single point]
COCCn1c(SCC(=O)Nc2ccccc2OC)nc2c(oc3ccccc32)c1=O	inactive
COc1ccc(-c2ccc(SC)nn2)cc1	inactive
CC(C)C[C@@H](CO)N(Cc1ccccc1)S(=O)(=O)N(Cc1ccccc1)[C@H](CO)CC(C)C	inconclusive: 20 µM [inhibitor, partial curve]
